From article PMC7318222, “A Family of Water‐Immiscible, Dipolar Aprotic, Diamide Solvents from Succinic Acid” (Chemsuschem, 2020)

Key:
[1] = Miscibility with hexane; type: physicochemical; conditions: this work
[2] = Miscibility with water; type: physicochemical; conditions: this work

## CC(=O)N(C)C [DMAc, N,N‐dimethylacetamide]
[1]
  Hexane misc.: no^[a]
[2]
  Water misc.: yes^[a]
